{
  "source": "patent US20260374750A1",
  "about": "“LIGANDS SPECIFICALLY TARGETING VESICULAR GLUTAMATE TRANSPORTERS FOR SUPER-RESOLUTION IMAGING” (SORBONNE UNIVERSITÉ, priority 2021, published 2026)",
  "origin": "cited, not measured here",
  "tested_on": "VGLUTs",
  "conditions": "role: substrate, cited from earlier work",
  "note": "At least one compound was matched to its structure with a doubt left.",
  "data": [
    {"smiles": "N[C@@H](CCC(=O)O)C(=O)O", "note": "[glutamate]", "values": [
      {"measurement": "Km", "value": "1000 to 5000", "unit": "µM"},
      {"measurement": "selectivity of translocation relative to aspartate or glutamine", "setting": "relative to structurally similar amino acids such as aspartate or glutamine", "value": "high selectivity"}
    ]}
  ]
}
